From the supplement of paper PMC8256030 come the findings set out here.

The structures appear in SMILES notation. Values joined by “and” are separate entries in the source; they are usually repeats but may differ in a detail not shown here. Equal values may be shown once. Some of the results follow. This data set is noisy: repeats of one test often differ as much as different tests do.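 HEK293T cells were given each compound shortly before transfection with a reporter in which red mCherry is followed by the SARS-CoV-2 frameshift element and then GFP in the −1 frame, so GFP appears only after frameshifting.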

The assay concerns HEK293T. In words: percent viability (nuclei count) relative to control; higher = more viable cells. Conditions: 10 µM; 24 h.
Turning to `N#CC(c1ccc(Cl)cc1)c1ccc(-n2ncc(=O)[nH]c2=O)cc1Cl` (stereo not given) [clazuril], the percent viability was found to be 110%. `Cn1nnnc1SCC1=C(C(=O)O)N2C(=O)[C@@H](NC(=O)[C@H](OC=O)c3ccccc3)[C@H]2SC1`: the percent viability was found to be 265%. The result for `CN1CCN(C2=Nc3ccccc3Oc3ccc(Cl)cc32)CC1` reads 152%; that for `O.O.O.O.O=C([O-])CC(O)(CC(=O)[O-])C(=O)[O-].[Li+].[Li+].[Li+]`, 321%. `C[C@@H]1CCC[C@H](C)N1NC(=O)c1ccc(Cl)c(S(N)(=O)=O)c1` [clopamide]: the percent viability was determined as 308%.

For `CN[C@@H]1[C@@H](O[C@H]2O[C@H](CO)[C@@H](N)[C@H](O)[C@H]2O)OC2C[C@@H](N)[C@@H](O[C@H]3[C@H](O)[C@@H](O)[C@H](N)C[C@@H]3N)OC2[C@@H]1O` (stereo not given in full) [apramycin], the percent viability is 228% and 197%. On to `COc1ccc(Cc2cnc(N)nc2N)cc1OC` [diaveridine], for which the percent viability is 254%. To `N#Cc1c(N(CC(=O)O)CC(=O)O)sc(C(=O)O)c1CC(=O)O` [ranelic acid] belongs 349%; to `O=C(O)c1cn(-c2ccc(F)cc2)c2cc(N3CCNCC3)c(F)cc2c1=O` [sarafloxacin], 291% and 182%. To `Cc1ccccc1N1CCN(CCc2nnc3n2CCCC3)CC1` belongs 97%. To `CCCCc1oc2ccccc2c1C(=O)c1cc(I)c(OCCN(CC)CC)c(I)c1` [amiodarone] belongs 466% and 362%. On to `O=C(O)c1cccnc1` [nicotinic acid], for which the percent viability is 87.6%. To `C#Cc1cccc(Nc2ncnc3cc(OCCOC)c(OCCOC)cc23)c1` [Erlotinib] belongs 251%. To `c1cnc(N2CCN(Cc3ccc4c(c3)OCO4)CC2)nc1` [Piribedil·2HCl] belongs 253%; to `CCc1nn(CCCN2CCN(c3cccc(Cl)c3)CC2)c(=O)n1CCOc1ccccc1`, 126%; to `N=C(N)NS(=O)(=O)c1ccc(N)cc1` [sulfaguanidine], 16%. The result for `O=C(O)CCC(=O)c1ccc2oc3ccccc3c2c1` [furobufen] reads 190%; that for `CN(C)c1cc(NC(=O)CNC(C)(C)C)c(O)c2c1CC1CC3C(N(C)C)C(=O)C(C(N)=O)=C(O)C3(O)C(=O)C1=C2O` (stereo not given) [Tygacil], 219%. For `CCC(C(=O)NC(N)=O)c1ccccc1` (stereo not given) [pheneturide], the percent viability turned out to be 207%.

For the compound `Nc1nc(N)c2nc(-c3ccccc3)c(N)nc2n1` [triamterene], the percent viability turned out to be 141%. The result for `COC(=S)NCCn1c([N+](=O)[O-])cnc1C` [carnidazole] reads 144%.

Turning to `Cc1ncc(CO)c(C=O)c1O` [Pyridoxal], the percent viability worked out at 294%. To `Cc1cc2c(s1)Nc1ccc(F)cc1N=C2N1CCN(C)CC1` [flumezapine] belongs 397%; to `Cc1c(CN2CCOC(c3ccccc3)C2C)c(=O)n(-c2ccccc2)n1C` (stereo not given) [morazone], 286%. For the compound `CC(C)(O)C(C)(O)c1ccc(Cl)cc1` (stereo not given) [phenaglycodol], the percent viability was found to be 38.6%.

On to `CCCCC(CC)COC(=O)CC(C(=O)OCC(CC)CCCC)S(=O)(=O)O` (stereo not given) [docusate sodium], for which the percent viability is 3.4%.

With `S=P(N1CC1)(N1CC1)N1CC1` [thiotepa], the percent viability was determined as 380%. In the case of `COCCCC/C(=N\OCCN)c1ccc(C(F)(F)F)cc1`, the percent viability amounted to 147%. As to `CCOC(=O)c1ccc(N(CC(C)O)CC(C)O)cc1` (stereo not given) [roxadimate], the percent viability was 279%.

For the compound `CCC1=C[C@@H]2CN(C1)Cc1c([nH]c3ccccc13)[C@@](C(=O)OC)(c1cc3c(cc1OC)N(C)[C@H]1[C@@](O)(C(=O)OC)[C@H](OC(C)=O)[C@]4(CC)C=CCN5CC[C@]31[C@@H]54)C2` [vinorelbine], the percent viability amounted to 19.5%. `CO[C@@H]1[C@@H](OC(=O)c2ccc(C)[nH]2)[C@@H](O)[C@@H](Oc2ccc3c(O)c(NC(=O)c4c[nH]c(C(=O)Nc5c(O)c6ccc(O[C@H]7OC(C)(C)[C@H](OC)[C@@H](OC(=O)c8ccc(C)[nH]8)[C@H]7O)c(C)c6oc5=O)c4C)c(=O)oc3c2C)OC1(C)C` [coumamycin]: the percent viability amounted to 11.1%.

As to `CN(C)CCc1c[nH]c2ccc(C[C@H]3COC(=O)N3)cc12` [Zolmitriptan], the percent viability turned out to be 187%. `[O-][n+]1cccc(CO)c1`: the percent viability stood at 255%. To `CC(O)CN(CCN(CC(C)O)CC(C)O)CC(C)O` (stereo not given) [edetol] belongs 213%; to `CCOC(=O)C1=C[C@]2(CC)CCCN3CCc4c(n1c1ccccc41)[C@@H]32` [Vinpocetine], 221%; to `CCCCCNC(=N)N/N=C/c1c[nH]c2ccc(OC)cc12`, 132%. The result for `OCC(O)COc1ccc(Cl)cc1` (stereo not given) [chlorphenesin] reads 52%. For the compound `O=C(/C=C/c1ccc2c(c1)OCO2)N1CCCCC1` [ilepcimide], the percent viability was determined as 66%. The result for `CC(=O)OCC(=O)[C@@]1(O)CC[C@H]2[C@@H]3CCC4=CC(=O)C=C[C@]4(C)[C@H]3[C@@H](O)C[C@@]21C` reads 203%; that for `CC#C[C@]1(O)CC[C@H]2[C@@H]3CCC4=CC(=O)CCC4=C3[C@@H](c3ccc(N(C)C)cc3)C[C@@]21C` [mifepristone], 202% and 201%.
